Where a chain is given by its changes, count along the chain named. No constants are given. Whether binding was seen depends on the method and setting. For some of these results: In cells and extracts the contact can be indirect. Some results given as binding are weak or reduced against the parent protein; the word gives no strength. One block for each binder: values may come before it.
Experiments:
[1] = target: T1, LexA:NH1 (rice (Oryza sativa L)) (UniProt Q9FDY4); experiment: two-hybrid; yeast; NH1 fused to LexA as bait, NRR, its mutants and homologues fused to B42AD as prey; blue colour indicates a positive interaction
T1 sequence: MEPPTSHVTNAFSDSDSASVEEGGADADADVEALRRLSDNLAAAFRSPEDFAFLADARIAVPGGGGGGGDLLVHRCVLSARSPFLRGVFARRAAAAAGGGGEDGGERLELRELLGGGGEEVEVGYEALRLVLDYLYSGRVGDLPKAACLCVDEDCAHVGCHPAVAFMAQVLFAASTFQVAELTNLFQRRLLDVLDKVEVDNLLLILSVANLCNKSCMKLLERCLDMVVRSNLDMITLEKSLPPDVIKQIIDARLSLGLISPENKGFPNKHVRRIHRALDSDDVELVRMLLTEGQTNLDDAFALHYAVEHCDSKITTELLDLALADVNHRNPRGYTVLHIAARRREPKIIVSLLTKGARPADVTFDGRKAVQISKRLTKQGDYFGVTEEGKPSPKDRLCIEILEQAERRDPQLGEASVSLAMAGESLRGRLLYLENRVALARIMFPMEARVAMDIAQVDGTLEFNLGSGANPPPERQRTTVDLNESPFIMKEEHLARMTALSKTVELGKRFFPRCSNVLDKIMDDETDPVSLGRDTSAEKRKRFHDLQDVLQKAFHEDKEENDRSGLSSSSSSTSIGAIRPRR

[2] = target: T2, YN:NH1 (rice (Oryza sativa L)) (UniProt Q9FDY4); experiment: split reporter; split YFP in rice protoplasts; YN:NH1 co-expressed transiently with YC fusions; fluorescence observed semi-quantitatively under a microscope 24-36 h after transfection
T2 sequence: T1 sequence

binding [2]: binds
B2: YC:DL (protein, UniProt Q5ZEF1 1-127)
chain: MDATTTAKRKRPAASDIADDAPTTVDEVSDAEVEEFYAILRRMRDATRRLGARPPPPRAPAWRPSFSWEDFADAPPKQAPPPPQQPADHERVAENATPPRRPAPGLAANVEPPSDAPATPRSARAPA

binding [2]: binds
B4: YC:NRR (protein, UniProt Q5ZEF1 1-127)
chain: B2 chain with A107D, A108L

The next lines start with the binder.

B1: B42AD:NRR (protein, UniProt Q5ZEF1 1-127)
chain: B2 chain with A107D, A108L
binding [1]: binds

B3: B42AD:W66 (protein, UniProt Q5ZEF1 1-127)
chain: B2 chain with W62A, A107D, A108L
binding [1]: binds
